Reference: PubChem BioAssay AID1347075 (National Center for Advancing Translational Sciences (NCATS), 2019)
The campaign covered roughly 400,000 compounds. About 5,500 (1.4%) were called active. The inconclusive results got no clear call from the source; some entries with a clear call stand among them for comparison. Calls follow the shape of the dose curve; as a rule, active = well fitted cell-killing curve with a large enough effect; inconclusive = small, poorly fitted or top-dose-only effect, or effect the other way; inactive = flat fitted curve, though single readings scatter. Where the call is inconclusive, the potency comes from a doubtful curve fit.

Assay: qHTS assay for MDR1-selective chemotherapeutics: Primary screen using the parental adenocarcinoma cell KB-3-1; also: nearly all actives have a fitted effect of over 60% in size
Details: KB-3-1 viability, CellTiter-Glo ATP luminescence, 72 h; activity change, negative = cytotoxic: at 46.1 µM (top of the series)
Procedure, shortened: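 Cytotoxicity measured as CellTiter-Glo luminescence after 72 h at 37 C. Compound titrations were pinned onto drug-naive KB-3-1 parental adenocarcinoma cells grown in DMEM with 10% FBS, and normalized data fitted to concentration-response curves.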
% is scaled to controls: 0 for no effect and ±100 for the full control effect; potency is read from the fitted curve at half-maximal effect.

| Compound | Potency | activity change, negative = cytotoxic |
| --- | --- | --- |
| CC(=O)c1ccc(Nc2ccc(-c3ccccc3F)nn2)cc1 | inconclusive: 29.1 µM [cytotoxic, single point] |  |
| Cc1ccc(-n2c(Cc3cccn3C)nnc2SCC(=O)Nc2nnc(C)s2)cc1 | inconclusive: 0.731 µM [rising, full curve, poor fit] |  |
| Cc1ccc(S(=O)(=O)N(C)C)cc1NC(=O)c1ccc2ccccc2n1 |  | inactive: -12.3% |
| CSc1nnc2n(C)c3c(c(=O)n12)C1(CCCC1)Cc1ccccc1-3 | inconclusive: 20.6 µM [cytotoxic, single point] |  |
| COc1cc2sc3ccc(-c4ccc(CN5CCOCC5)cc4)cc3c(=O)c2cc1OC | inconclusive: 23.1 µM [cytotoxic, single point] |  |
| Cc1ccc(C(=O)Nc2cccc(S(=O)(=O)N3CCCCC3)c2)cc1[N+](=O)[O-] | active: 20.6 µM |  |
| Cc1noc(C)c1COc1ccc(C(=O)NNC(=O)c2ccccc2O)cc1 | inconclusive: 23.1 µM [cytotoxic, single point] |  |
| O=C(N/N=C/c1ccsc1)c1ccccn1 |  | inactive: -3.12% |
| Cc1csc2ncnc(N3CCN(C(=S)Nc4ccc(F)cc4F)CC3)c12 |  | inactive: 1.5% |
| COc1ccc(C(=O)c2ccc(N3CCN(C(=O)c4ccc(F)cc4)CC3)c(F)c2)cc1Br | inconclusive: 29.1 µM [cytotoxic, single point] |  |
| COc1ccccc1-n1c(-c2ccccc2)n[nH]c1=S | inconclusive: 0.0052 µM [rising, full curve] |  |
| CCOc1ccc(-c2cnc3n2CCC3)cc1 | inconclusive: 25.9 µM [cytotoxic, single point] |  |
| O=C1NC(=S)N(C(=O)c2ccc(F)cc2)/C1=C/c1ccccc1 | inconclusive: 29.1 µM [cytotoxic, single point] |  |
| O=c1c(F)cn(C2CCCO2)c(=O)n1Cc1ccccc1Cl (centres undefined) |  | inconclusive: -10.3% |
| Oc1ccccc1C=NNC(=S)NN=Cc1ccccc1O | inconclusive: 32.6 µM [cytotoxic, single point] |  |
| Cc1ccc(S(=O)(=O)Nc2ccc3c(c2)nc(CCN2CCCC2)n3C)cc1 | inconclusive: 29.1 µM [cytotoxic, single point] |  |
| CC1(C)CC(=O)C(N=Nc2cccc(S(=O)(=O)N3CCOCC3)c2)=C(O)C1 |  | inactive: 4.02% |
| COC(=O)/C=C/CC(C)OS(N)(=O)=O (centres undefined) |  | inactive: 0% |
| COc1ccc(Sc2ccc(NC(=O)c3ccccc3Cl)cc2C#N)cc1 | inconclusive: 29.1 µM [cytotoxic, single point] |  |
| COc1ccc2c(c1)C1CC(C)(NC(=O)C1C(=O)c1ccccc1)O2 (centres undefined) |  | inactive: -1.14% |
| CC(=O)c1ccc(OCc2ccc(C(=O)c3ccccc3)cc2)cc1 | active: 14.6 µM |  |
| CC1CCN(C(c2cccs2)c2nnnn2Cc2ccccc2)CC1 (centres undefined) | inconclusive: 29.1 µM [cytotoxic, single point] |  |

Looked up above.
activity change, negative = cytotoxic with COC(=O)/C=C/CC(C)OS(N)(=O)=O (centres undefined) reads inactive: 0%
Potency with O=C1NC(=S)N(C(=O)c2ccc(F)cc2)/C1=C/c1ccccc1 reads inconclusive: 29.1 µM [cytotoxic, single point]
Potency with Oc1ccccc1C=NNC(=S)NN=Cc1ccccc1O reads inconclusive: 32.6 µM [cytotoxic, single point]

Remaining list, next part:

| Compound | Potency | activity change, negative = cytotoxic |
| --- | --- | --- |
| COc1ccc(CNC(=O)CN2CCC(C(=O)c3ccc(OC)cc3)CC2)cc1 | inconclusive: 18.4 µM [cytotoxic, partial curve] |  |
| O=C(CN1CCCC1c1cccs1)Nc1cccc(S(=O)(=O)N2CCCC2)c1 (centres undefined) | inconclusive: 20.6 µM [cytotoxic, single point] |  |
| CCOc1ccc(CC(=O)NCC(=O)NCc2cc(=O)n(C)c(=O)n2C)cc1 |  | inactive: 19.4% |
| c1ccc(N2CCN(c3ncnc4c3nc3n4CCCCC3)CC2)cc1 | inconclusive: 25.9 µM [cytotoxic, single point] |  |
| O=C(NC(=S)Nc1ccc(S(=O)(=O)N2CCCCC2)cc1)c1cccs1 | inconclusive: 18.4 µM [cytotoxic, partial curve, poor fit] |  |
| O=C(CCl)N=c1sccn1Cc1cccc2ccccc12 | inconclusive: 29.1 µM [cytotoxic, single point] |  |
| Cc1cc(Br)ccc1NC(=O)c1sc2ncn(Cc3ccccc3Cl)c(=O)c2c1C |  | inactive: 16.6% |
| COc1cccc(-c2csc(N3CCN(C(=O)Nc4ccc(F)cc4)CC3)n2)c1 | inconclusive: 29.1 µM [cytotoxic, single point] |  |
| COc1ccc(/C=C(/C(=O)Nc2ccccc2C(=O)N2CCCC2)c2ccccc2)cc1 |  | inactive: -5.1% |
| COc1ccc(N2C(=O)NC3CC2(C)Oc2ccccc23)cc1OC (centres undefined) | inconclusive: 18.4 µM [cytotoxic, single point] |  |
| COc1ccc(C=C(C#N)c2ccc(OC)cc2)cc1 | active: 18.4 µM |  |
| CCC(C)c1ccccc1NC(=O)COC(=O)c1ccc2[nH]c3c(c2c1)CCCC3 (centres undefined) | inconclusive: 18.4 µM [cytotoxic, single point] |  |
| CCNC(=O)C1(C)CCCN(C(=O)c2cc(-c3cccs3)oc2C)C1 (centres undefined) |  | inactive: -0.63% |
| Cc1sc(NC(=O)c2ccco2)c(CN2CCN(c3ccccc3)CC2)c1C | inconclusive: 20.6 µM [cytotoxic, partial curve, poor fit] |  |
| COc1ccc(/C(O)=C/c2nc3ccc(C(=O)NCCc4cccc(C)c4)cc3[nH]c2=O)cc1OC | active: 10.3 µM |  |
| Nc1c(S(=O)(=O)c2ccccc2)c2nc3ccccc3nc2n1Cc1ccco1 | inconclusive: 29.1 µM [cytotoxic, single point] |  |
| CCn1c(O)c(N=NC(=O)c2cccs2)c2ccccc21 | inconclusive: 29.1 µM [cytotoxic, single point] |  |
| CCOC(=O)c1sc(NC(=O)Nc2ccc(Cl)cc2)cc1C | inconclusive: 29.1 µM [cytotoxic, single point] |  |
| O=C(Nc1cccc2ccccc12)C12CC3CC(C1)CC(n1cnc([N+](=O)[O-])n1)(C3)C2 | inconclusive: 14.6 µM [cytotoxic, partial curve] |  |
| CCc1c(C)sc(NC(=O)C2CC(c3c(F)cccc3Cl)=NO2)c1C#N (centres undefined) |  | inconclusive: -38.8% [cytotoxic] |
| CCOc1ccc(N/C(N)=N/c2nc(CSc3nnnn3-c3ccccc3)cc(=O)[nH]2)cc1 | inconclusive: 29.1 µM [cytotoxic, single point] |  |
| Clc1ccc(-n2nnnc2-c2cnc3ccc(Cl)cc3c2-c2ccccc2)cc1 | inconclusive: 29.1 µM [cytotoxic, single point] |  |
